# Some of the results follow.
# B1: MUB70 (Lactobacillus reuteri) (protein)
# chain: CVHVQYIDGETDQMLRQDDLDGYTDETIPYSTAEGIKKFEGDGYELFKDNFPAGEKFDNDDTNDQFYTVIF
# Assays:
# Assay in all cases: glycan array binding signal (z-score within array); higher = stronger binding
# Conditions in all cases: glycan notation: IUPAC condensed, linker removed
# [1] = target: Gal(b1-3)GlcNAc(b1-2)Man(a1-3)[Gal(b1-3)GlcNAc(b1-2)Man(a1-6)]Man(b1-4)GlcNAc(b1-4)GlcNAc
# Procedure, shortened: (§1)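 Arrays were curated from the Consortium for Functional Glycomics database, 3228 in total, and kept only where the protein sequence was available. Binding is expressed as a within-array Z-score. This score was averaged across arrays of the same protein sequence at different concentrations or buffers and across linkers, and negative values can be read as non-binding.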
# [2] = target: Gal(b1-3)GlcNAc(b1-2)Man(a1-3)[Gal(b1-3)GlcNAc(b1-2)Man(a1-6)]Man(b1-4)GlcNAc(b1-4)[Fuc(a1-6)]GlcNAc
# Procedure, shortened: as §1
# [3] = target: Gal(b1-3)GlcNAc(b1-2)Man(a1-3)[GlcNAc(b1-4)][Gal(b1-3)GlcNAc(b1-2)Man(a1-6)]Man(b1-4)GlcNAc(b1-4)GlcNAc
# Procedure, shortened: as §1
# [4] = target: Gal(b1-3)GlcNAc(b1-2)[Gal(b1-3)GlcNAc(b1-6)]Man(a1-6)[Gal(b1-3)GlcNAc(b1-2)Man(a1-3)]Man(b1-4)GlcNAc(b1-4)GlcNAc
# Procedure, shortened: as §1
# [5] = target: Gal(b1-3)GlcNAc(b1-3)Gal(b1-3)GlcNAc
# Procedure, shortened: as §1
# [6] = target: Gal(b1-3)GlcNAc(b1-3)Gal(b1-4)Glc
# Procedure, shortened: as §1
# [7] = target: Gal(b1-3)GlcNAc(b1-3)Gal(b1-4)GlcNAc
# Procedure, shortened: as §1
# [8] = target: Gal(b1-3)GlcNAc(b1-3)Gal(b1-4)GlcNAc(b1-2)Man(a1-3)[Gal(b1-3)GlcNAc(b1-3)Gal(b1-4)GlcNAc(b1-2)Man(a1-6)]Man(b1-4)GlcNAc(b1-4)GlcNAc
# Procedure, shortened: as §1
# [9] = target: Gal(b1-3)GlcNAc(b1-3)Gal(b1-4)GlcNAc(b1-2)[Gal(b1-3)GlcNAc(b1-3)Gal(b1-4)GlcNAc(b1-6)]Man(a1-6)[Gal(b1-3)GlcNAc(b1-3)Gal(b1-4)GlcNAc(b1-2)Man(a1-3)]Man(b1-4)GlcNAc(b1-4)[Fuc(a1-6)]GlcNAc
# Procedure, shortened: as §1
# [10] = target: Gal(b1-3)GlcNAc(b1-3)Gal(b1-4)GlcNAc(b1-3)Gal(b1-4)GlcNAc(b1-2)[Gal(b1-3)GlcNAc(b1-3)Gal(b1-4)GlcNAc(b1-3)Gal(b1-4)GlcNAc(b1-6)]Man(a1-6)[Gal(b1-3)GlcNAc(b1-3)Gal(b1-4)GlcNAc(b1-3)Gal(b1-4)GlcNAc(b1-2)Man(a1-3)]Man(b1-4)GlcNAc(b1-4)[Fuc(a1-6)]GlcNAc
# Procedure, shortened: as §1
# [11] = target: Gal(b1-3)GlcNAc(b1-3)Gal(b1-4)GlcNAc(b1-6)[Gal(b1-3)GlcNAc(b1-3)]Gal(b1-4)Glc
# Procedure, shortened: as §1
# [12] = target: Gal(b1-3)GlcNAc(b1-3)Gal(b1-4)[Fuc(a1-3)]GlcNAc
# Procedure, shortened: as §1
# [13] = target: Gal(b1-3)GlcNAc(b1-3)Gal(b1-4)[Fuc(a1-3)]GlcNAc(b1-6)[Gal(b1-3)GlcNAc(b1-3)]Gal(b1-4)Glc
# Procedure, shortened: as §1
# [14] = target: Gal(b1-3)GlcNAc(b1-3)GalNAc
# Procedure, shortened: as §1
# [15] = target: Gal(b1-3)GlcNAc(b1-6)Gal(b1-4)GlcNAc
# Procedure, shortened: as §1
# [16] = target: Gal(b1-3)GlcNAc(b1-6)GalNAc
# Procedure, shortened: as §1
# [17] = target: Gal(b1-3)GlcNAc(b1-6)[Gal(b1-3)]GalNAc
# Procedure, shortened: as §1
# Gal(b1-3)GlcNAc6S = target: Gal(b1-3)GlcNAc6S
# Procedure, shortened: as §1
# [18] = target: Gal(b1-3)[Fuc(a1-4)]GlcNAc
# Procedure, shortened: as §1
# [19] = target: Gal(b1-3)[Fuc(a1-4)]GlcNAc(b1-2)Man
# Procedure, shortened: as §1
# [20] = target: Gal(b1-3)[Fuc(a1-4)]GlcNAc(b1-2)Man(a1-3)[Gal(b1-3)[Fuc(a1-4)]GlcNAc(b1-2)Man(a1-6)]Man(b1-4)GlcNAc(b1-4)[Fuc(a1-6)]GlcNAc
# Procedure, shortened: as §1
# [21] = target: Gal(b1-3)[Fuc(a1-4)]GlcNAc(b1-3)Gal(b1-3)[Fuc(a1-4)]GlcNAc
# Procedure, shortened: as §1
# [22] = target: Gal(b1-3)[Fuc(a1-4)]GlcNAc(b1-3)Gal(b1-4)[Fuc(a1-3)]GlcNAc
# Procedure, shortened: as §1
# [23] = target: Gal(b1-3)[Fuc(a1-4)]GlcNAc(b1-6)GalNAc
# Procedure, shortened: as §1
# [24] = target: Gal(b1-3)[GlcNAc(b1-6)]GalNAc
# Procedure, shortened: as §1
# [25] = target: Gal(b1-3)[Neu5Ac(a2-6)]GalNAc
# Procedure, shortened: as §1
# [26] = target: Gal(b1-3)[Neu5Ac(a2-6)]GlcNAc(b1-4)Gal(b1-4)Glc
# Procedure, shortened: as §1
# [27] = target: Gal(b1-3)[Neu5Ac(b2-6)]GalNAc
# Procedure, shortened: as §1
# Gal(b1-4)Gal = target: Gal(b1-4)Gal
# Procedure, shortened: as §1
# [28] = target: Gal(b1-4)GalNAc(a1-3)[Fuc(a1-2)]Gal(b1-4)GlcNAc
# Procedure, shortened: as §1
# [29] = target: Gal(b1-4)GalNAc(b1-3)[Fuc(a1-2)]Gal(b1-4)GlcNAc
# Procedure, shortened: as §1
# Gal(b1-4)Glc = target: Gal(b1-4)Glc
# Procedure, shortened: as §1
# Gal(b1-4)Glc6S = target: Gal(b1-4)Glc6S
# Procedure, shortened: as §1
# Gal(b1-4)GlcNAc = target: Gal(b1-4)GlcNAc
# Procedure, shortened: as §1
# [30] = target: Gal(b1-4)GlcNAc(a1-6)Gal(b1-4)GlcNAc
# Procedure, shortened: as §1
# Gal(b1-4)GlcNAc(b1-2)Man = target: Gal(b1-4)GlcNAc(b1-2)Man
# Procedure, shortened: as §1
# [31] = target: Gal(b1-4)GlcNAc(b1-2)Man(a1-3)Man(b1-4)GlcNAc(b1-4)GlcNAc
# Procedure, shortened: as §1
# [32] = target: Gal(b1-4)GlcNAc(b1-2)Man(a1-3)[Gal(b1-4)GlcNAc(b1-2)Man(a1-6)]Man(b1-4)GlcNAc(b1-4)GlcNAc
# Procedure, shortened: as §1
# [33] = target: Gal(b1-4)GlcNAc(b1-2)Man(a1-3)[Gal(b1-4)GlcNAc(b1-2)Man(a1-6)]Man(b1-4)GlcNAc(b1-4)[Fuc(a1-6)]GlcNAc
# Procedure, shortened: as §1
# [34] = target: Gal(b1-4)GlcNAc(b1-2)Man(a1-3)[Gal(b1-4)GlcNAc(b1-2)Man(a1-6)][Gal(b1-4)GlcNAc(b1-4)]Man(b1-4)GlcNAc(b1-4)[Fuc(a1-6)]GlcNAc
# Procedure, shortened: as §1
# [35] = target: Gal(b1-4)GlcNAc(b1-2)Man(a1-3)[Gal(b1-4)GlcNAc(b1-2)Man(a1-6)][GlcNAc(b1-4)]Man(b1-4)GlcNAc(b1-4)[Fuc(a1-6)]GlcNAc
# Procedure, shortened: as §1
# [36] = target: Gal(b1-4)GlcNAc(b1-2)Man(a1-3)[GlcNAc(b1-2)Man(a1-6)]Man(b1-4)GlcNAc(b1-4)GlcNAc
# Procedure, shortened: as §1
# [37] = target: Gal(b1-4)GlcNAc(b1-2)Man(a1-3)[GlcNAc(b1-4)][Gal(b1-4)GlcNAc(b1-2)Man(a1-6)]Man(b1-4)GlcNAc(b1-4)GlcNAc
# Procedure, shortened: as §1
# [38] = target: Gal(b1-4)GlcNAc(b1-2)Man(a1-3)[Man(a1-6)]Man(b1-4)GlcNAc(b1-4)GlcNAc
# Procedure, shortened: as §1
# [39] = target: Gal(b1-4)GlcNAc(b1-2)Man(a1-6)Man(b1-4)GlcNAc(b1-4)GlcNAc
# Procedure, shortened: as §1
binder,measurement,setting,value
B1,glycan array binding signal (z-score),[1],-0.414
same,glycan array binding signal (z-score),[2],-0.7
same,glycan array binding signal (z-score),[3],0.3
same,glycan array binding signal (z-score),[4],1.76
same,glycan array binding signal (z-score),[5],-0.315
same,glycan array binding signal (z-score),[6],-0.539
same,glycan array binding signal (z-score),[7],-0.441
same,glycan array binding signal (z-score),[8],0.487
same,glycan array binding signal (z-score),[9],0.309
same,glycan array binding signal (z-score),[10],-0.476
same,glycan array binding signal (z-score),[11],0.949
same,glycan array binding signal (z-score),[12],0.53
same,glycan array binding signal (z-score),[13],0.233
same,glycan array binding signal (z-score),[14],-0.051
same,glycan array binding signal (z-score),[15],1.7
same,glycan array binding signal (z-score),[16],-0.196
same,glycan array binding signal (z-score),[17],-0.34
same,glycan array binding signal (z-score),Gal(b1-3)GlcNAc6S,-0.072
same,glycan array binding signal (z-score),[18],0.153
same,glycan array binding signal (z-score),[19],-0.586
same,glycan array binding signal (z-score),[20],-1
same,glycan array binding signal (z-score),[21],-0.379
same,glycan array binding signal (z-score),[22],0.083
same,glycan array binding signal (z-score),[23],-0.459
same,glycan array binding signal (z-score),[24],-0.653
same,glycan array binding signal (z-score),[25],0.618
same,glycan array binding signal (z-score),[26],-0.73
same,glycan array binding signal (z-score),[27],-0.309
same,glycan array binding signal (z-score),Gal(b1-4)Gal,-0.017
same,glycan array binding signal (z-score),[28],-0.017
same,glycan array binding signal (z-score),[29],-0.75
same,glycan array binding signal (z-score),Gal(b1-4)Glc,-0.459
same,glycan array binding signal (z-score),Gal(b1-4)Glc6S,-0.489
same,glycan array binding signal (z-score),Gal(b1-4)GlcNAc,-0.632
same,glycan array binding signal (z-score),[30],-0.067
same,glycan array binding signal (z-score),Gal(b1-4)GlcNAc(b1-2)Man,-0.018
same,glycan array binding signal (z-score),[31],0.416
same,glycan array binding signal (z-score),[32],-0.322
same,glycan array binding signal (z-score),[33],-0.056
same,glycan array binding signal (z-score),[34],-0.001
same,glycan array binding signal (z-score),[35],0.228
same,glycan array binding signal (z-score),[36],-0.774
same,glycan array binding signal (z-score),[37],-0.499
same,glycan array binding signal (z-score),[38],0.1
same,glycan array binding signal (z-score),[39],0.58

# 3 consecutive entries out of the list so far, quoted:
binder,measurement,setting,value
B1,glycan array binding signal (z-score),[28],-0.017
same,glycan array binding signal (z-score),[29],-0.75
same,glycan array binding signal (z-score),Gal(b1-4)Glc,-0.459

# From the supplement of paper PMC8728848
